Two sequences from patent publication US20250002921 can be followed below.

Chains of the proteins cited; added tags and fusions are not shown.
UniProt P40763, whole entry: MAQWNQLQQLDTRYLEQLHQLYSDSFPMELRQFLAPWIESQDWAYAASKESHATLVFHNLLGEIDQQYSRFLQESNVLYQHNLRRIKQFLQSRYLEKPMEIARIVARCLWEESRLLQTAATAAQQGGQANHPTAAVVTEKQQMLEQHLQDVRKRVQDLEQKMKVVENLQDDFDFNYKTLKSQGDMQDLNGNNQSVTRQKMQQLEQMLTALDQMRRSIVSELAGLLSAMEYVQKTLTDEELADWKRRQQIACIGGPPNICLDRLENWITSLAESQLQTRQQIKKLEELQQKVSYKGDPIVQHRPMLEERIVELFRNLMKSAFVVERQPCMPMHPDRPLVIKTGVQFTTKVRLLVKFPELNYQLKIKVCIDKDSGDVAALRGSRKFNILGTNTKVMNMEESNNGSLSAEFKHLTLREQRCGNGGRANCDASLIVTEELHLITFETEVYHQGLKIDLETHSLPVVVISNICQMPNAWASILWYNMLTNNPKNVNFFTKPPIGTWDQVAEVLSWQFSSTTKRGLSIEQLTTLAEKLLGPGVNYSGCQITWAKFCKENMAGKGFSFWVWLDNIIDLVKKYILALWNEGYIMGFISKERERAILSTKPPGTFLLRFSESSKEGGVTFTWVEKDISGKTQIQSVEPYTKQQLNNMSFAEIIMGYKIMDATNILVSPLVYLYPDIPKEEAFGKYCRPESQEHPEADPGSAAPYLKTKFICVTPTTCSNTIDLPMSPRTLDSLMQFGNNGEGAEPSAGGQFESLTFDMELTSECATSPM

In data set [1] the target is STAT3 (HEK-Blue IL-6 reporter cells) (UniProt P40763). Description: activity in cells. The settings on record: thiolated, multivalent on 13 nm gold nanoparticle core, protein in cells, dose not given here.
Data set [2] addresses STAT3 (Homo sapiens) (UniProt P40763). In words: EMSA. The settings on record: thiolated, multivalent on 13 nm gold nanoparticle core; ISD45-SNA did not bind STAT3; 20 mM Tris pH 7.2, RT; purified recombinant protein.

For at least one entry, the source does not settle the construct or the ends of the probe. A negative result means that nothing was seen under these conditions.

As to “TACAACATTTCCCGTAAATCGGGGGGATTTACGGGAAATGTTGTA [ISDG5STAT3i-SNA]”, the “functional effect of the aptamer” value in data set [1] (represses STAT3-driven IL-6 reporter (SEAP), folded or branched DNA) was “active”.

For the sequence “TACAGATCTACTAGTGATCTATGACTGATCTGTACATGATCTACA / ACATCTAGTACATGTCTAGTCAGTATCTAGTGATCATCAGACA [ISD45-SNA]”, the binding result in data set [2] is “no binding”. In data set [1] (no repression of STAT3-driven IL-6 reporter), the “functional effect of the aptamer” value was “not active”.
